PubChem BioAssay AID1259405 | NCATS, 2018
Here is a random part of about 50,000 deposited reagents. In the full data, about 4,000 (8%) got an active call. 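Mouse siRNA library applied to hamster cells; one well for each siRNA.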 Unmarked entries are inactive. Reagents against one gene are numbered here. Reagent sequences are not shown.

Test: 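Mouse-designed siRNAs used to find CHO productivity engineering targets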 (primary screen)
Cell system: Chinese hamster CHO-K1 ovary cells with stable secreted eGFP expression
Reagent: single siRNA against mouse genes, 0.8 pmol siRNA per well (2 µl of 400 nM stock)
Time to read-out: 3 days
Measurement: 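Per-well intracellular GFP measured by laser scanning cytometry, plus viability from ATP luminescence, each relative to plate median of non-targeting control wells, in %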
Reading the numbers: GFP, % of control: higher = more GFP per well, higher productivity; viability (ATP), % of control: higher = more viable cells (more ATP)
Rule for the call: 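a knock-down is called active if GFP reaches 120% or more of non-targeting control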

target | reagent no. | GFP, % of control | viability (ATP), % of control
Maob | 1 | 59.6 | 72.6
Maob | 2 | 61.1 | 71.6
Maob | 3 | 64.8 | 53.3
H2-T3 | 1 | 66.1 | 63.4
H2-T3 | 2 | 66.7 | 75.6
H2-T3 | 3 | 68.8 | 69.5
H2-T3 | 4 | 96.2 | 77.4
H2-T3 | 5 | 87 | 73.3
H2-T3 | 6 | 79.6 | 67.1
Atg4d | 1 | 83.3 | 56.6
Atg4d | 2 | 107 | 109
Atg4d | 3 | 137 (active) | 95.4
Gabra1 | 1 | 93.1 | 94.2
Gabra1 | 2 | 64.9 | 60
Gabra1 | 3 | 46.9 | 49.1
Cst7 | 1 | 65.8 | 74.9
Cst7 | 2 | 45 | 39.6
Cst7 | 3 | 69.2 | 42.2
Pdcd1lg2 | 1 | 50.4 | 39.8
Pdcd1lg2 | 2 | 94.7 | 68.6
Pdcd1lg2 | 3 | 83.7 | 75.6
Oard1 | 1 | 84.3 | 90
Oard1 | 2 | 74.6 | 37.1
Oard1 | 3 | 73.1 | 96.8
Rpa3 | 1 | 66.2 | 65.1
Rpa3 | 2 | 42.2 | 51.1
Rpa3 | 3 | 74.9 | 86.6
Xiap | 1 | 86.4 | 94.6
Xiap | 2 | 98.2 | 89.5
Xiap | 3 | 124 (active) | 74.8
Polr2h | 1 | 67.6 | 71
Polr2h | 2 | 90 | 58.2
Polr2h | 3 | 61.1 | 81
Mid2 | 1 | 67 | 58.7
Mid2 | 2 | 83.3 | 63.3
Pnp | 1 | 69.2 | 75
Pnp | 2 | 76.7 | 68.5
Pnp | 3 | 51 | 62.7

Entries above whose gene name starts with M or m (5):
target | reagent no. | GFP, % of control | viability (ATP), % of control
Maob | 1 | 59.6 | 72.6
Maob | 2 | 61.1 | 71.6
Maob | 3 | 64.8 | 53.3
Mid2 | 1 | 67 | 58.7
Mid2 | 2 | 83.3 | 63.3

Continued.
target | reagent no. | GFP, % of control | viability (ATP), % of control
Tmem214 | 1 | 154 (active) | 109
Tmem214 | 2 | 77.4 | 69.8
Tmem214 | 3 | 89.7 | 114
Pelo | 1 | 75.9 | 52.4
Pelo | 2 | 94.6 | 72.4
Pelo | 3 | 118 | 86.3
F8a | 1 | 77.3 | 97.4
F8a | 2 | 115 | 111
F8a | 3 | 92.3 | 68.1
Ube2h | 1 | 99.3 | 76.6
Ube2h | 2 | 83.7 | 78.3
Ube2h | 3 | 59 | 69.8
Foxi2 | 1 | 65 | 67
Foxi2 | 2 | 54.5 | 69.7
Foxi2 | 3 | 73.3 | 91.8
Lonp2 | 1 | 6.24 | 17.8
Lonp2 | 2 | 51 | 76.1
Lonp2 | 3 | 90.4 | 56.1
Hnrnpf | 1 | 63.4 | 51.8
Hnrnpf | 2 | 111 | 88.9
Hnrnpf | 3 | 112 | 85.7
Cops7b | 1 | 85.8 | 98.9
Cops7b | 2 | 62 | 50.2
Cops7b | 3 | 124 (active) | 128
Zfy1 | 1 | 37.5 | 47.4
Zfy1 | 2 | 76.6 | 93.4
Zfy1 | 3 | 99.4 | 90.9
Fabp2 | 1 | 129 (active) | 108
Fabp2 | 2 | 101 | 77.7
Fabp2 | 3 | 81.9 | 69.9
Or8g33 | 1 | 90.8 | 64.1
Or8g33 | 2 | 42.8 | 29.6
Or8g33 | 3 | 74.9 | 95.6
Snx31 | 1 | 67.1 | 83.6
Snx31 | 2 | 88.3 | 93
Snx31 | 3 | 87.4 | 104
Slc25a22 | 1 | 131 (active) | 98.6
Slc25a22 | 2 | 113 | 105
Slc25a22 | 3 | 55.1 | 57.4
Pou3f1 | 1 | 93 | 108
Pou3f1 | 2 | 101 | 74.2
Pou3f1 | 3 | 75 | 78.9
Dnajc3 | 1 | 96.6 | 65.1
Dnajc3 | 2 | 103 | 100
Dnajc3 | 3 | 67.2 | 106
Cfap43 | 1 | 72.6 | 98
Cfap43 | 2 | 65.9 | 89.1
Cfap43 | 3 | 92.5 | 112
